Assay results taken from article doi:10.1101/2021.12.20.472892.
Results are given in words; binding and its absence hold for the method and conditions named. Binding can be weak; no strength is given.

By UniProt entry, the sequences of proteins in these tests, tags left out. Where a name states a change or a piece, a line headed by the entry shows the natural chain unless it says otherwise.
UniProt Q9SL70: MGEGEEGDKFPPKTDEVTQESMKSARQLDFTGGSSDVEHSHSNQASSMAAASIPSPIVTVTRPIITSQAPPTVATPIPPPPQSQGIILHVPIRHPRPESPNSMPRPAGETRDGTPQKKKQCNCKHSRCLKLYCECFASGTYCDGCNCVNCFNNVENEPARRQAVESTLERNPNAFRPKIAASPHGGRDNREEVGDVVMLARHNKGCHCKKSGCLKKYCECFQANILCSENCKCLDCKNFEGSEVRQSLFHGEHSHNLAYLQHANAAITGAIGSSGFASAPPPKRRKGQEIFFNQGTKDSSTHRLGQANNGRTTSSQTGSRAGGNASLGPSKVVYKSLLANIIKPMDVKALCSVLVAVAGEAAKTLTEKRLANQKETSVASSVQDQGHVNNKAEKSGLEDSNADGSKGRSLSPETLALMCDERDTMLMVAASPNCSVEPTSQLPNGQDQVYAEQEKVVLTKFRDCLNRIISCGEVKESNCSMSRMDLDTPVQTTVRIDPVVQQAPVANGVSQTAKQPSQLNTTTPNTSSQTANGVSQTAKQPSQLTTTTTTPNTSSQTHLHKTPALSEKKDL

Target: T1, RETINOBLASTOMA-RELATED1 (RBR), wild type (Arabidopsis thaliana) (UniProt Q9LKZ3)
T1 sequence: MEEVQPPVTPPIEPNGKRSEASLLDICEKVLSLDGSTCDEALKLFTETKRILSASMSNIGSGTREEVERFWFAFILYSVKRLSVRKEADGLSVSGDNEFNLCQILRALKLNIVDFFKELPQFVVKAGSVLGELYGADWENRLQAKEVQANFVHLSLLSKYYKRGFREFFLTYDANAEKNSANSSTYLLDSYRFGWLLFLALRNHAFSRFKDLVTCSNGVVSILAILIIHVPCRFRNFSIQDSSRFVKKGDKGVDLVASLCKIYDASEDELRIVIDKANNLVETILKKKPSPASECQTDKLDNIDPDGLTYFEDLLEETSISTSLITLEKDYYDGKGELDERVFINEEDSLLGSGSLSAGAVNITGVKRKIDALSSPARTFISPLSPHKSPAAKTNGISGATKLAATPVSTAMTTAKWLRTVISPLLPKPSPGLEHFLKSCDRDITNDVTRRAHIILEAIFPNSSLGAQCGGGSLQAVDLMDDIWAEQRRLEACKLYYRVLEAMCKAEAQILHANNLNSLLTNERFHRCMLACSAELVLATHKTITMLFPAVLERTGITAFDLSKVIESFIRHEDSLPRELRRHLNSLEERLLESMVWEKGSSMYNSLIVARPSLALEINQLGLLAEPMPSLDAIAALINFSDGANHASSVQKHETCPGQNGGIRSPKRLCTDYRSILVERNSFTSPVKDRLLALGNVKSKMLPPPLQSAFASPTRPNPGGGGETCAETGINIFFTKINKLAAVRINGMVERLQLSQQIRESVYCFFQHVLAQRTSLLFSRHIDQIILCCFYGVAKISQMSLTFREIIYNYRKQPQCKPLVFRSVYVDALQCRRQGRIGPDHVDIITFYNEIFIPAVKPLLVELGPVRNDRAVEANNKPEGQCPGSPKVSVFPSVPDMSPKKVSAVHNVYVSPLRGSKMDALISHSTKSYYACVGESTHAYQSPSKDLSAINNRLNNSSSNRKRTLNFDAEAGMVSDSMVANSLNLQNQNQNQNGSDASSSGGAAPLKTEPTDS
Assay: two-hybrid

| Substance | binding |
| --- | --- |
| TCX6^gcg1 (TCX6 mutated on the LXCXE-like motif '1' within the CXC domain) (from UniProt Q9SL70) | binds |
| TCX6^gcg2 (TCX6 mutated on the canonical LXCXE motif '2') (from UniProt Q9SL70) | no binding |
